No constants are given. Whether binding was seen depends on the method and setting. In cells and extracts the contact can be indirect. Binding can be weak; no strength is given. Sequences can lack the tags named with a protein.
Tests used:
[1] = target: T1, flag-tagged mouse Tob2 (mouse) (UniProt Q9JM55); assay: co-IP; HEK293T cell extracts transfected with HA-tagged CPEB3 or ApCPEB together with flag-tagged mTob1 or mTob2
T1 sequence: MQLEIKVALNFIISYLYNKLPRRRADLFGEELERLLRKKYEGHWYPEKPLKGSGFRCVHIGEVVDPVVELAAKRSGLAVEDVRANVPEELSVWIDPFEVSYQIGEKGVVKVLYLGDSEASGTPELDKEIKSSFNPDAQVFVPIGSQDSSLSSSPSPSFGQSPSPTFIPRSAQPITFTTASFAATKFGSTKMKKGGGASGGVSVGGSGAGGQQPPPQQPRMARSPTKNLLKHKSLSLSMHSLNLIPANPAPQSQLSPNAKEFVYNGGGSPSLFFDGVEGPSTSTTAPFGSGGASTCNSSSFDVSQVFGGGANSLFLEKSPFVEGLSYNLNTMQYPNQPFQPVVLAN

[2] = target: T2, flag-tagged mouse Tob1 (mouse) (UniProt Q61471); assay: as above
T2 sequence: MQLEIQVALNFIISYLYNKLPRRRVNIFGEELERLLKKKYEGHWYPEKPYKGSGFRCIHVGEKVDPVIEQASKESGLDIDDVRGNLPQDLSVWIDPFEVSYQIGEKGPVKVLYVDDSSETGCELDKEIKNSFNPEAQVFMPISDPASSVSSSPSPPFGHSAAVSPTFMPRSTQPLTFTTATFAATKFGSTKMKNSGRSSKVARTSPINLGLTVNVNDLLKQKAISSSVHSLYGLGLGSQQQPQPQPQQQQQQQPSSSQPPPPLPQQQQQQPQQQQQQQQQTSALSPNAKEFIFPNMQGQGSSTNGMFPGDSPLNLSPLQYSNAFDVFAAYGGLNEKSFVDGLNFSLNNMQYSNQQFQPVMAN

[3] = target: Transducer of Erb-B2 (Tob), endogenous in adult fly heads (Drosophila melanogaster (endogenous in adult fly heads)); assay: co-IP; adult fly head lysate (1-4 mg) in 1% Igepal buffer; anti-Tob serum (preimmune as control) and Protein-A agarose; unstimulated, 10 mM tyramine, serotonin, dTrpA1 activation, LimK mutant flies

Molecule: HA-tagged Aplysia CPEB
- binding [1]: binds
- binding [2]: binds

B1: HA-tagged LimK, adult fly heads (enzyme, UniProt Q8IR79 1-1257)
chain: MHHQQRLRANGGRGGTGLGAGSGPVSGGHSPLCAHCRGQLLPHPEEPIVMALGQQWHCDCFRCSVCEGHLHNWYFEREGLLYCREDYYGRFGDACQQCMAVITGPVMVAGEHKFHPECFCCTACGSFIGEGESYALVERSKLYCGQCYGKRSCQPADAKARITTAGKPMHSIRLVEIPKDATPGLRVDGVALDDGCPTVRITDLFCNFFLWLTSMAEQCCGAPYRIDVNLTNLHIGDRILEVNGTPVSDSSVEQIDKLIRSNEKMLQLTVEHDPVQVCRSCSQADIQRAMSASTLILPLSTSASSVEVGRERLYKTPGEQGTKARKLRQATNASTTIPPAAGATAMTQLKEKERCSSLSKLLDEQHQAQQHSAHPQLYDLSRTQSCRVVQKPQRIFRATDLVIGEKLGEGFFGKVFKVTHRQSGEVMVLKELHRADEEAQRNFIKEVAVLRLLDHRHVLKFIGVLYKDKKLHMVTEYVAGGCLKELIHDPAQVLPWPQRVRLARDIACGMSYLHSMNIIHRDLNSMNCLVREDRSVIVADFGLARSVDAPRLPSGNMTPGGYGSGANSDAPMSPSGTLRRSKSRQRRQRYTVVGNPYWMAPEMMKGLKYDEKVDVFSFGIMLCEIIGRVEADPDFMPRNSDFSLNQQEFREKFCAQCPEPFVKVAFVCCDLNPDMRPCFETLHVWLQRLADDLAADRVPPERLLHEIETFQEWYASSEDALSPTSQRSLNNLDELVKSAVDSEISPVEKEKENMVIKPQDIPKSPHLGKDFSPSGERLRDSMRARRRQRFLGAQEERRNLTPDTESKERALKKALKKCRPFGERGYLVDLRAGAELQLEDVRDLNTYSDVDSSCDTSLNYHDVNNLPAAQEDENTVKPGKEELLEESTNKPSNQESQHHRLAIDDMRTRLNQCRSKFEHLEEASRRNFNQSQHSMKNFFKTPPVALKMFQRLEHEAAALNGGNNCPPPPPRTQRINQTPIFGRKNPPVAIVGQKLQHAESLEDLASSGVAKQLATPAPKRSKATATTKGGQSSNPPLFLPPSLNISVALNSNGNVTTTTNTNSSCPPSASDWLPKKHKLTLPLPSAQQQRTSSNHRLPMCNNKGKTLKPLPSRTGSQGIPASNCVSPTRSSRPGSPTKHLAQRHTAATAQRLTNAAATHQQQHQQQSSKTTRLNILSPEKVHRLGARLTDQKQKMREEAAATASSVGGAGCAAGTAAGSLNGHRTIGSSGTPNSAVGERRRRAAPSPPVRTHFNTRC
- binding [3]: binds
